The text below walks through data of PMC10683620.

Amino acid sequences for entries named in this document (tags omitted). A change or cut given only in a name is not applied to a line headed by its entry.
UniProt Q96GD4: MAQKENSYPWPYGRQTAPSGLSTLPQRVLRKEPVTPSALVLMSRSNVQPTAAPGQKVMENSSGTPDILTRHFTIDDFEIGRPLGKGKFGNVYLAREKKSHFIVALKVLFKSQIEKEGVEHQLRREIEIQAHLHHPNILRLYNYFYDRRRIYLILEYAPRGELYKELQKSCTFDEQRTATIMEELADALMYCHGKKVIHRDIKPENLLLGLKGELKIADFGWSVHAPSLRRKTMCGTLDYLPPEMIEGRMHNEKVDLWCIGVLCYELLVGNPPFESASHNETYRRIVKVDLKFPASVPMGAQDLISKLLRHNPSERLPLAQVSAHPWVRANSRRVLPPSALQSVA
UniProt O75367: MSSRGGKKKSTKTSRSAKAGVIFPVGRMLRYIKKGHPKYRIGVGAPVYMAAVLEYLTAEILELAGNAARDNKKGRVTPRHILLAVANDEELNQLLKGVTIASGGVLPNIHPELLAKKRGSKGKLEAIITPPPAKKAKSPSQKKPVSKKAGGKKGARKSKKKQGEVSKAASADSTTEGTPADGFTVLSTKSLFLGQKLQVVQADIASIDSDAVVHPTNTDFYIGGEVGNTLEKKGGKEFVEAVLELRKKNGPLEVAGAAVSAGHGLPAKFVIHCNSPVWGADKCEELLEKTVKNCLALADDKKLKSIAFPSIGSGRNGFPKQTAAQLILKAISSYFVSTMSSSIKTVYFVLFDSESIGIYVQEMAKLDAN
UniProt Q9BSJ2: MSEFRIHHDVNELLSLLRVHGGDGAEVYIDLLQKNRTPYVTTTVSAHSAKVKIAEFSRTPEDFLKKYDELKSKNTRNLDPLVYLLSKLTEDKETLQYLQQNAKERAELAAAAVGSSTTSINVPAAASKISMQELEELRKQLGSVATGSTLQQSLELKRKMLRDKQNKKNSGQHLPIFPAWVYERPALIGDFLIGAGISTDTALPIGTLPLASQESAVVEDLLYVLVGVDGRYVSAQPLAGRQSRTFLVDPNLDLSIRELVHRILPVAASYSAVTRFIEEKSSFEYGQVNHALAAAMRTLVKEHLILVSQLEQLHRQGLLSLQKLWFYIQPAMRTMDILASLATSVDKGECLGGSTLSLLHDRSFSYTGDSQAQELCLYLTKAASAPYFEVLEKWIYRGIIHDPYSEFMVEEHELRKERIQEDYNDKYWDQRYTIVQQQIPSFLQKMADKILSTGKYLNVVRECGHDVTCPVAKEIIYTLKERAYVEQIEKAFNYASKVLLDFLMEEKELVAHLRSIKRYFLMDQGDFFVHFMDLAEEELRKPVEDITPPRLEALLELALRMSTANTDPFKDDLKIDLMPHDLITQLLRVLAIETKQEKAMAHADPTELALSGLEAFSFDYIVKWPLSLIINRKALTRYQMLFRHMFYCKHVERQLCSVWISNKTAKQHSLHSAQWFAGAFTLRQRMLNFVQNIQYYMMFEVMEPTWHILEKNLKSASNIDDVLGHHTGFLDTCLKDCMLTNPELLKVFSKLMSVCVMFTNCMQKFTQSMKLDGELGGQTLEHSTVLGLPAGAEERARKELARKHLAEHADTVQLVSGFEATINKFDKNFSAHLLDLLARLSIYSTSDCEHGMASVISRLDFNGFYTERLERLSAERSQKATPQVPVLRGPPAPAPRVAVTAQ
UniProt Q9ULW0: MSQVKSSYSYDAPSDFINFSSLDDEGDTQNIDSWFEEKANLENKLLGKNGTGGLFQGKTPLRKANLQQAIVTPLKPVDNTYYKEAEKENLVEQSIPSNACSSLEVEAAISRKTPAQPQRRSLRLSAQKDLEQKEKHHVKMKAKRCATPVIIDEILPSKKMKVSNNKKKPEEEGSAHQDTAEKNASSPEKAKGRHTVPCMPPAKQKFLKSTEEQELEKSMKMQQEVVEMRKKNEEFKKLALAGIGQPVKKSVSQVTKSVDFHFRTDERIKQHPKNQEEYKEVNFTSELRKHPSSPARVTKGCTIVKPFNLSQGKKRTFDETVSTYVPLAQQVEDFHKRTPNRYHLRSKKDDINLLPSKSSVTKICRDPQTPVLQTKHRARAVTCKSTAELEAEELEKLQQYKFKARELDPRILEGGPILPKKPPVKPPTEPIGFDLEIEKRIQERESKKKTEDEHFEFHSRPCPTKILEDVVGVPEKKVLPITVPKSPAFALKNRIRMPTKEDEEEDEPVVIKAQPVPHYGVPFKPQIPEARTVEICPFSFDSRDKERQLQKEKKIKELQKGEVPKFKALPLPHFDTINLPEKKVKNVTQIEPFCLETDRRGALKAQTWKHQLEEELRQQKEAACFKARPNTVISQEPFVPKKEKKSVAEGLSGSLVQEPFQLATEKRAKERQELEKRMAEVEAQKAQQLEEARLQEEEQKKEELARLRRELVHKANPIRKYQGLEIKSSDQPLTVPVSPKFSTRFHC
UniProt P46013: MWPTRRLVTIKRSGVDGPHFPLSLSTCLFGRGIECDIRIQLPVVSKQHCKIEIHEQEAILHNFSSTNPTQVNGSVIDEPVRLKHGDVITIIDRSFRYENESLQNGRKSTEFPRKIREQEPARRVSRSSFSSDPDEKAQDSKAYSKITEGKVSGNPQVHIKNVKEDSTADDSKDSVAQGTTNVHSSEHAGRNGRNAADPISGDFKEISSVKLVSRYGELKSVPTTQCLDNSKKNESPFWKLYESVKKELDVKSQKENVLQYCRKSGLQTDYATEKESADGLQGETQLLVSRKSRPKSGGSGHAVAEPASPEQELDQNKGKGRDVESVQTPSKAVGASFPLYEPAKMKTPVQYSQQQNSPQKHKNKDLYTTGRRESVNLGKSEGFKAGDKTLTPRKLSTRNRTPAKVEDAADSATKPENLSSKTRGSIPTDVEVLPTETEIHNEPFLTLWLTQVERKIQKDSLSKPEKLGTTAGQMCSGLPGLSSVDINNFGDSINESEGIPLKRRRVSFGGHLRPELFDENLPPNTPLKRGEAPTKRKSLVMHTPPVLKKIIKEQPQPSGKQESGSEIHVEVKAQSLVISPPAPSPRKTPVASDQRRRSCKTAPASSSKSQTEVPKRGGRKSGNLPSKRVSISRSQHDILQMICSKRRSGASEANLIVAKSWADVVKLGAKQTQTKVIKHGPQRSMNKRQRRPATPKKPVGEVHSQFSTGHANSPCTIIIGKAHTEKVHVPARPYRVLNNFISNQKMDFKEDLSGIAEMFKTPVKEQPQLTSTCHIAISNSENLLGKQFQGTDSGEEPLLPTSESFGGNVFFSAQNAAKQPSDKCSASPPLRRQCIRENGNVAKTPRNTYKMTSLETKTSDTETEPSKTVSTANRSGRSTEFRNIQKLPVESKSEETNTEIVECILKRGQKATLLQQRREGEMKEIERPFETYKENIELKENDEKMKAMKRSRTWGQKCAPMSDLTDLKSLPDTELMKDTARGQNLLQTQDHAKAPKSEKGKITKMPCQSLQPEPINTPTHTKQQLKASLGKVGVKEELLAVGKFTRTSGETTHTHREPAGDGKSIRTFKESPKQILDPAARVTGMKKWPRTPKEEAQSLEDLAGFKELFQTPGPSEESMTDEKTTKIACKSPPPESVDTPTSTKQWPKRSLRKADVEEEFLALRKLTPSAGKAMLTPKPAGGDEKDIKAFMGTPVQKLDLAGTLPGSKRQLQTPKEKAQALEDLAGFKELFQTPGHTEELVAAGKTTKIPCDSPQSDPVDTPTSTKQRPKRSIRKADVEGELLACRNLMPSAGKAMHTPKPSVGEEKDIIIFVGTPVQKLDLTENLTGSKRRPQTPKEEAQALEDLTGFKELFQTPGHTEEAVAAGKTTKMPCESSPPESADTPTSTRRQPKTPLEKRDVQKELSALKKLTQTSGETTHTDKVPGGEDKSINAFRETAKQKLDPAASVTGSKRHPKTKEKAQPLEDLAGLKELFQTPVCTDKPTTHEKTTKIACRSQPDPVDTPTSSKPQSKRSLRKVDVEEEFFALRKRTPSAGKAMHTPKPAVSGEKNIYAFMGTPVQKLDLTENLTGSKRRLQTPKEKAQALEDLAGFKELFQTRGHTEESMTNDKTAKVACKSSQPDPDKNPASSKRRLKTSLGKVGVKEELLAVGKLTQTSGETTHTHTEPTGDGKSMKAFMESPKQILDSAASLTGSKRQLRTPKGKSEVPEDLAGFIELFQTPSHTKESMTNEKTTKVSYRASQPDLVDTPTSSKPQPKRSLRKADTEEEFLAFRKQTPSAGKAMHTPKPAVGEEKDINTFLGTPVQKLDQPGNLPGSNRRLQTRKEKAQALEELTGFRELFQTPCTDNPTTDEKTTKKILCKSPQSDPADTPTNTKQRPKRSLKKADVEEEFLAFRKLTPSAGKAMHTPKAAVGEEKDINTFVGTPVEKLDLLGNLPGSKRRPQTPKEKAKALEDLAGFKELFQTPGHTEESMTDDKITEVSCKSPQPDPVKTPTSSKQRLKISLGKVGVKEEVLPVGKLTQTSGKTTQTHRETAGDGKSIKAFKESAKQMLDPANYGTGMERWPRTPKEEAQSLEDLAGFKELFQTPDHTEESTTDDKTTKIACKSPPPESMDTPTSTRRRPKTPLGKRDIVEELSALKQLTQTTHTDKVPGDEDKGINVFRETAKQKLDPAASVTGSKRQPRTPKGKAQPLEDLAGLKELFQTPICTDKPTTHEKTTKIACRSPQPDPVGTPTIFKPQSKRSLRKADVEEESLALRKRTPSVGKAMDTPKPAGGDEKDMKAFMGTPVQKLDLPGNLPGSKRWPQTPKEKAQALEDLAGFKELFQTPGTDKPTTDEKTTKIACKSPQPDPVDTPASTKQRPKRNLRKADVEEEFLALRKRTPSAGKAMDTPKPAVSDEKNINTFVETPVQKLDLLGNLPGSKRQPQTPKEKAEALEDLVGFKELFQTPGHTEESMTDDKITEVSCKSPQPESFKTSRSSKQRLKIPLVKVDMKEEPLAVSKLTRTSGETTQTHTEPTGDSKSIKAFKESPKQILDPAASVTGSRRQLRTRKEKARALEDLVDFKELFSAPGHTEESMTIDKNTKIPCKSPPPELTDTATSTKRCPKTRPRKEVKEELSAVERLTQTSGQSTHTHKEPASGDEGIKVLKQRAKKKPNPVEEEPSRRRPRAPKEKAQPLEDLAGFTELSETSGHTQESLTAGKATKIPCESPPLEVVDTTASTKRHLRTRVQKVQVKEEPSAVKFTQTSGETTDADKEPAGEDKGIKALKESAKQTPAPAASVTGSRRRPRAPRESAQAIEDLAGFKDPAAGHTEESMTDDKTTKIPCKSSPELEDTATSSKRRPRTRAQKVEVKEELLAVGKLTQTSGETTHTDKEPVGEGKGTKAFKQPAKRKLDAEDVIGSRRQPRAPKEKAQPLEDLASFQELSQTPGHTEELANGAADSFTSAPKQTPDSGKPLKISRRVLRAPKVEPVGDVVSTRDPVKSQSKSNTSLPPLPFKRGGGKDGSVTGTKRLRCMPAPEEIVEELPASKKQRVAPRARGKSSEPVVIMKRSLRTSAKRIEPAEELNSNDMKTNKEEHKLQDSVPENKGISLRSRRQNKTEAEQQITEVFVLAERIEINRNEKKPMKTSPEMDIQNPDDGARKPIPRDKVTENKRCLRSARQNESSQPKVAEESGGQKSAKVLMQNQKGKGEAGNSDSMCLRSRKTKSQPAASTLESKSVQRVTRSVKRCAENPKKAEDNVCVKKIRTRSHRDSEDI

T1: Kinesin-like protein KIFC1 (human (endogenous in EC109)) (UniProt Q9BW19)
T1 sequence: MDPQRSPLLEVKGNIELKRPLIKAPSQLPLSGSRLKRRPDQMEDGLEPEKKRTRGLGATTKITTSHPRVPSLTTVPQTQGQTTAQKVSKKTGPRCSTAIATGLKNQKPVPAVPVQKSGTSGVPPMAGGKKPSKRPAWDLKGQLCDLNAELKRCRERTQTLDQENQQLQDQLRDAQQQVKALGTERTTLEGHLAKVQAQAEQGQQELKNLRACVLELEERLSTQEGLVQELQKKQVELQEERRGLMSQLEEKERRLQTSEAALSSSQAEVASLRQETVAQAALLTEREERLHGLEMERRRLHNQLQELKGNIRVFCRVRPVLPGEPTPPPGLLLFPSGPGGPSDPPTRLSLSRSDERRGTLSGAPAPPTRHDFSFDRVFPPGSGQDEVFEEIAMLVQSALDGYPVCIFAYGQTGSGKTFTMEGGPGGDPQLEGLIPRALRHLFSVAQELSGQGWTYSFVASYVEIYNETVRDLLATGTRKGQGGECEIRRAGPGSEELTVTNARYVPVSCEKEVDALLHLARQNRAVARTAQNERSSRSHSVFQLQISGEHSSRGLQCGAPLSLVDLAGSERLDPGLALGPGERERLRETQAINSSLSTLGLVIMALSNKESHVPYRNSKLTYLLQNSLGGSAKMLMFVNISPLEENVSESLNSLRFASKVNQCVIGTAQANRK

B1: Small kinetochore-associated protein (protein, UniProt Q9Y448 1-316)
chain: MAAPEAPPLDRVFRTTWLSTECDSHPLPPSYRKFLFETQAADLAGGTTVAAGNLLNESEKDCGQDRRAPGVQPCRLVTMTSVVKTVYSLQPPSALSGGQPADTQTRATSKSLLPVRSKEVDVSKQLHSGGPENDVTKITKLRRENGQMKATDTATRRNVRKGYKPLSKQKSEEELKDKNQLLEAVNKQLHQKLTETQGELKDLTQKVELLEKFRDNCLAILESKGLDPALGSETLASRQESTTDHMDSMLLLETLQEELKLFNETAKKQMEELQALKVKLEMKEERVRFLEQQTLCNNQVNDLTTALKEMEQLLEM
B2: ATP-binding cassette sub-family F member 2 (protein, UniProt Q9UG63 1-623)
chain: MPSDLAKKKAAKKKEAAKARQRPRKGHEENGDVVTEPQVAEKNEANGRETTEVDLLTKELEDFEMKKAAARAVTGVLASHPNSTDVHIINLSLTFHGQELLSDTKLELNSGRRYGLIGLNGIGKSMLLSAIGKREVPIPEHIDIYHLTREMPPSDKTPLHCVMEVDTERAMLEKEAERLAHEDAECEKLMELYERLEELDADKAEMRASRILHGLGFTPAMQRKKLKDFSGGWRMRVALARALFIRPFMLLLDEPTNHLDLDACVWLEEELKTFKRILVLVSHSQDFLNGVCTNIIHMHNKKLKYYTGNYDQYVKTRLELEENQMKRFHWEQDQIAHMKNYIARFGHGSAKLARQAQSKEKTLQKMMASGLTERVVSDKTLSFYFPPCGKIPPPVIMVQNVSFKYTKDGPCIYNNLEFGIDLDTRVALVGPNGAGKSTLLKLLTGELLPTDGMIRKHSHVKIGRYHQHLQEQLDLDLSPLEYMMKCYPEIKEKEEMRKIIGRYGLTGKQQVSPIRNLSDGQKCRVCLAWLAWQNPHMLFLDEPTNHLDIETIDALADAINEFEGGMMLVSHDFRLIQQVAQEIWVCEKQTITKWPGDILAYKEHLKSKLVDEEPQLTKRTHNV

No constants are given. Whether binding was seen depends on the method and setting. In cells and extracts the contact can be indirect. Here binding means that the protein was enriched with, or labelled near, the bait; the list need not be complete.

The test concerns the target T1, Kinesin-like protein KIFC1 (human (endogenous in EC109)). Put plainly: affinity purification with mass spectrometry; Co-IP with anti-KIFC1 antibody against an IgG control, then HPLC-MS; cells treated with nocodazole and released (an estimated 70% in metaphase); cells disrupted physically rather than by detergents (NP40).
For the molecule “Aurora B kinase (from UniProt Q96GD4 1-344) (enzyme)”, the binding result is on record as “binds”.

In the case of “Core histone macro-H2A.1 (from UniProt O75367 1-369)”, the binding entry was “binds”. With Filamin-A (from UniProt P21333 1-2647), the binding result is recorded as “binds”. “Gamma-tubulin complex component (from UniProt Q9BSJ2 1-902)”: the binding result is listed as “binds”. In the case of “Highly similar to Targeting protein for Xklp2 (from UniProt Q9ULW0 1-747)”, the binding result is given as “binds”.

With “Proliferation marker protein Ki-67 (from UniProt P46013 1-3256)”, the binding entry is on record as “binds”. Turning to B1, the binding entry was “binds”. B2: the binding result was “binds”.
